No constants are given. Whether binding was seen depends on the method and setting. Binding seen in cells or lysates may run through a third protein. Some entries that bind do so weakly or less than the wild type.
Tests used:
[1] = molecular target: FLAG-KAT2A (not stated (human or mouse cDNA cloned)) (UniProt Q92830); assay: co-IP; lysate of HEK 293T cells overexpressing HA-VCP and FLAG-KAT2A; precipitated in both directions, western blot
[2] = molecular target: VCP (human (endogenous in hBMMSC)) (UniProt P55072); assay: co-IP; endogenous proteins in hBMMSC lysate (RIPA buffer); indicated antibodies or control IgG overnight at 4 °C, protein A/G beads, western blot; cells with or without TNF-α
[3] = molecular target: HA-VCP (UniProt P55072); assay: co-IP; lysate of HEK 293T cells overexpressing HA-VCP and FLAG-KAT2A; precipitated in both directions, western blot

The chains behind the UniProt entries cited, without tags or fusion partners.
UniProt Q92830: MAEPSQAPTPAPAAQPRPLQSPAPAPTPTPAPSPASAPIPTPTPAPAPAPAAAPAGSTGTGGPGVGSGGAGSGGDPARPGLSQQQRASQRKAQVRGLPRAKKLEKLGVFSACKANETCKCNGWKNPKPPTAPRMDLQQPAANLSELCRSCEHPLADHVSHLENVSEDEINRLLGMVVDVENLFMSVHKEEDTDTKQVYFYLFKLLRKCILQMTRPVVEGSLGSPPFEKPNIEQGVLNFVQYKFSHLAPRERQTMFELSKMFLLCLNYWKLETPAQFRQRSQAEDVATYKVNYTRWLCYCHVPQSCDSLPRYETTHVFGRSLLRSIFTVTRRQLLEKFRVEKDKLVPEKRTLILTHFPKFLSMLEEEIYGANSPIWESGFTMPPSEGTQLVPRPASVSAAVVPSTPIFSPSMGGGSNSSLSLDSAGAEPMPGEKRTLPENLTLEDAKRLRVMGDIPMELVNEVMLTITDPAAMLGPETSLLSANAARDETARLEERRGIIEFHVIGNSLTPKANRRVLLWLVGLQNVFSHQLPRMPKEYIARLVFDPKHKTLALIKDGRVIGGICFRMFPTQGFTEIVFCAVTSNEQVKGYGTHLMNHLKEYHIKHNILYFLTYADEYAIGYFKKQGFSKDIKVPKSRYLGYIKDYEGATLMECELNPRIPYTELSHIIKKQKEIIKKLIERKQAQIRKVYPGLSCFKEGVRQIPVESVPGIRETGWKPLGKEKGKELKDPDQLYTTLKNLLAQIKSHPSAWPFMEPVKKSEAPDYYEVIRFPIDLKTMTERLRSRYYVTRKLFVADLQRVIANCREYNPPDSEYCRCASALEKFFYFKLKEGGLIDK

With HA-VCP (from UniProt P55072 1-806) the binding [1] was “binds”.

For “KAT2A (from UniProt Q92830 1-837) (enzyme)”, the binding [2] was “binds”.

For “FLAG-KAT2A (from UniProt Q92830 1-837) (enzyme)”, the binding [3] was “binds”.

From publication PMC10933659
